The exact form of at least one protein or probe is not confirmed. For some of these results: No signal at the amounts used counts as a negative. For some of these results: At least one verdict was read from the data and is not stated in words by the source.

Chains of the proteins cited; added tags and fusions are not shown. Residues count along the entry.
UniProt Q96EQ9, 513-843: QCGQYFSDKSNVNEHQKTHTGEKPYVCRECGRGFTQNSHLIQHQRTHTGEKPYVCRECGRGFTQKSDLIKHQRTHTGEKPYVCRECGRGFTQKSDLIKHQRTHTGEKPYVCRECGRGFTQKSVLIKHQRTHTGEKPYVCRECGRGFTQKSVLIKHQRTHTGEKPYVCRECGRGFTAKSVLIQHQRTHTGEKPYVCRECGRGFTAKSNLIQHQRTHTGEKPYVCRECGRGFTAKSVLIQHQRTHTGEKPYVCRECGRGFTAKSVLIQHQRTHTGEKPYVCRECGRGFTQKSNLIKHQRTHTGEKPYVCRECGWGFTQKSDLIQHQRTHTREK

This is an account of results in publication PMC4287450, “PRDM9 Drives Evolutionary Erosion of Hotspots in Mus musculus through Haplotype-Specific Initiation of Meiotic Recombination”.

The target in data set [1] is PRDM9Dom2 (Mus musculus domesticus (B6 allele)) (UniProt Q96EQ9). The data set can be described thus: competition with a labelled probe. To be noted: 20x unlabeled, only oligo 1 competes; EMSA as in Billings et al. 2013 (buffer, pH, temperature not given); unlabeled competitor dsDNA at 20x labeled DNA; recombinant protein. (In EMSA bound probe runs differently from free probe, usually more slowly.)

Data set [2] has the same target. The data set can be described thus: EMSA. To be noted: EMSA as in Billings et al. 2013 (buffer, pH, temperature not given); unlabeled competitor dsDNA at 20x labeled DNA; recombinant protein; label: 5' biotin (forward primer); probe letters rebuilt from the primers and the genome.

For the sequence “AAGTGCTCCATGGACAGTAGCTTCTGCCTTTCCTTCCCAATAGTGCAGTTGGCTTTCTT (double strand) [chr1_158 oligo 2]”, the binding result in data set [1] is on record as “no binding”. In the case of “TCTGCAGAGTCGACCCCAGCCCTCTCCTTTCTGTTGGCAGTAGAGTGCCCGACTAACCCTTCT (double strand) [chr1_158 oligo 4]”, the binding result in data set [1] is on record as “no binding”.

Consider “TGCAGTTGGCTTTCTTTCATTTTGCTTTCAGCTCTGCAGAGTCGACCCC (double strand) [chr1_158 oligo 3]”, for which the binding result in data set [1] is reported as “no binding”.

Consider “TACACTGGGCTTCAGGCTGCCATATGTAAATGCTGGGAGCGGTATATACCCATCTACAACATGAAGCTACTGTAACTTTAGTTTTTTTTCTCTCTAAACTCATAGTCCTGGGA (double strand) [chr1 185.33 Mb CAST PCR product]”, for which the binding result in data set [2] is on record as “binds”.
